# The campaign covered roughly 220,000 compounds. About 770 (0.35%) were called active. The shares of active, inactive and inconclusive entries below differ from those in the screen. Rule as the data show it: active = binding response below about 49% or above about 150%; inconclusive = no clear call, values can overlap the other calls; inactive = in between.
# Amino acid sequences for entries named in this document (tags omitted).
# UniProt P09471, whole entry, looked up: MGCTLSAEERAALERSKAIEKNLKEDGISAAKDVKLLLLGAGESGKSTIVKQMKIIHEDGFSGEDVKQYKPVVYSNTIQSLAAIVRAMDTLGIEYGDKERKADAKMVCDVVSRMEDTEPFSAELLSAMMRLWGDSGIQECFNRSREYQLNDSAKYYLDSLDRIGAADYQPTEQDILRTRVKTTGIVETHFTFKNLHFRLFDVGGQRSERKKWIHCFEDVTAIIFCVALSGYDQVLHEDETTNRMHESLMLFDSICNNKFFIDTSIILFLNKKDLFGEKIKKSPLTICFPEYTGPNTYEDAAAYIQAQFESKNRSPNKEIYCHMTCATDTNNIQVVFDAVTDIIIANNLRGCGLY
# Molecular target: Guanine nucleotide-binding protein G(o) subunit alpha (Homo sapiens) (UniProt P09471)
# Experiment: RGS7-Galphao binding modulators, primary screen, biochemical, multiplexed bead flow cytometry (AID 1439);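 also: fluorescent Galphao held in activated GDP-AlF4 state binding bead-coupled RGS7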
# Settings: at 10 µM, actives lie on both sides
row,SMILES,binding response (% of control)
1,COC(=O)c1cc(NS(=O)(=O)c2ccc(C(C)C)cc2)ccc1N1CCOCC1,inconclusive: 79.3%
2,O=C(c1cc(-c2ccccn2)nc2ccccc12)N1CCN(c2ncccn2)CC1,inconclusive: 95.2%
3,Cc1nnc(N(C)C(=O)c2ccc3c(c2)OCO3)s1,inactive: 92.5%
4,CN(CC(=O)Nc1ccc(S(N)(=O)=O)cc1)Cc1ccccc1F,inactive: 103%
5,O=C1c2ccccc2S(=O)(=O)c2cc(C(=O)N(c3ccccn3)c3ccccn3)ccc21,inactive: 103%
6,O=C(N/N=C/C=C/c1ccccc1)c1ccccn1,inconclusive: 142%
7,O=C(CCc1nc(-c2ccccn2)no1)NCc1ccc2c(c1)OCO2,inconclusive: 119%
8,O=C(CNC(=O)c1ccco1)Nc1ccc(F)cc1,inconclusive: 105%
9,Clc1cccc(Nc2nc(-c3ccncc3)nc3ccccc23)c1,inconclusive: -41.6%
10,CC(=O)Nc1ccc(NC(=O)c2ccccc2CCc2ccccc2)cc1,inconclusive: 105%
11,Cn1cccc1/C=C1\SC(=S)N(Nc2ccccc2)C1=O,inconclusive: 70.1%
12,O=C(O)c1ccccc1C(=O)c1ccc(Sc2ccc(Cl)cc2)c([N+](=O)[O-])c1,inconclusive: 109%
13,Cc1cccc(C)c1NC(=S)N1CC(C)OC(C)C1 (stereo not given),inconclusive: 205%
14,CC(C)(C)CN1C(N)=NC[C@@H]1Cc1ccc(O)cc1,inconclusive: 116%
15,Cn1cnc(S(=O)(=O)N2CCN(c3ccc(F)cc3)CC2)c1,inconclusive: 81.8%
16,O=S(=O)(Cc1noc(-c2ccc(Cl)cc2)n1)Cc1ccco1,inconclusive: 100%
17,Cn1cc(/C=N/NC(N)=S)c2ccccc21,inconclusive: 96.3%
18,CC(C)CNC(=O)COC(=O)Cc1ccc(Cl)cc1,inconclusive: 92.2%
19,Cc1ccc2ncnc(Oc3ncccc3NC(=O)C(C)(C)C)c2c1,inconclusive: 85.1%
20,CCOC(=O)N1CCN(C(=S)NC(=O)c2ccc(F)c(F)c2)CC1,inactive: 103%
21,COc1cc(NC(=O)CN2CCC(C(N)=O)(N3CCCCC3)CC2)c(OC)cc1Cl,inconclusive: 74.1%
22,O=C(O)C1c2ccccc2C(=O)N(Cc2ccc(F)cc2)C1c1ccncc1 (stereo not given),inconclusive: 117%
23,Cc1ccc(Nc2c(-c3ccc(C)o3)nc3ncccn23)cc1,inconclusive: 133%

row,SMILES,binding response (% of control)
1,Cc1cc(NC(=O)CN(C)CCOc2ccccc2)ccc1Br,inconclusive: 93.9%
2,COc1cc(C(=O)OCCC(C)C)cc(OC)c1O,inconclusive: 107%
3,O=C(Nc1cccnc1)c1cc([N+](=O)[O-])ccc1Cl,inconclusive: 173%
4,O=C1CN(C(=O)COc2ccc(F)cc2Cl)c2ccccc2N1,inconclusive: 127%
5,COc1ccc(CNC(=O)CSCc2cccc(Cl)c2)cc1,inactive: 97.2%
6,COc1cc2nc(CN3CCN(C(c4ccccc4)c4ccccc4)CC3)[nH]c(=O)c2cc1OC,inconclusive: 126%
7,CCOC(=O)N1CCN(C(=S)Nc2ccccc2C(C)C)CC1,inconclusive: 108%
8,CCOc1cccc(/C(O)=C2/C(=O)C(=O)N(Cc3cccnc3)C2c2ccco2)c1 (stereo not given),inactive: 121%
9,O=C1C2C3c4ccccc4C(c4ccccc43)C2C(=O)N1Cc1ccccn1 (stereo not given),inactive: 99.2%
10,COc1ccc(CNC(=S)Nc2ccc3nc(N4CCN(C)CC4)cc(C)c3c2)cc1,inconclusive: 97.9%
11,O=C1CSC(=Nc2cccc(Cl)c2Cl)N1Cc1cccnc1,inconclusive: 88.2%
12,Cc1ccc(CCNC(=O)CS(=O)Cc2nc(-c3cccs3)oc2C)cc1 (stereo not given),inconclusive: 94.2%
13,O=C(O)c1ccc(/C=N/Nc2nc(N3CCCCC3)nc(N3CCCCC3)n2)cc1,inconclusive: 145%
14,O=C(NCC1CCN(S(=O)(=O)c2ccccc2)CC1)Nc1ccc(F)cc1,inconclusive: 125%
15,COc1cc(OC)cc(C(=O)NCC(=O)OCC(=O)Nc2ncc(Cl)cc2Cl)c1,inconclusive: 117%
16,Fc1cccc(CN2CCN(Cc3nc(-c4cnccn4)no3)CC2)c1,inconclusive: 102%
17,CCN1CCc2nc3ccccc3c(C(=O)Nc3ccc(F)cc3)c2C1,inconclusive: 103%
18,O=C(O)COCC(=O)NC1CCN(Cc2ccccc2)CC1,inconclusive: 105%
19,Cc1ccccc1NC(=S)N(CCN1CCCCC1)Cc1ccco1,inconclusive: 93.2%
20,CCN(CC(=O)Nc1cc(C)c(Cl)cc1OC)CC(=O)NC1CCS(=O)(=O)C1 (stereo not given),inactive: 102%
21,Cc1ccc(-n2nnnc2-c2cccnc2)cc1,inconclusive: 122%
22,Cc1c(-c2ccccc2)[n+](=O)c2c(n1[O-])CCCC2,inconclusive: 111%
23,CNc1nc2c(Cl)cc(Cl)cc2s1,inconclusive: 69.5%

row,SMILES,binding response (% of control)
1,COc1ccc(C2/C(=C(\O)c3ccc4c(c3)OCCO4)C(=O)C(=O)N2Cc2ccco2)c(OC)c1 (stereo not given),inactive: 112%
2,O=[N+]([O-])c1ccc(N2CCSCC2)cc1O,inconclusive: 120%
3,COc1cc(C2NC(=O)NC(c3ccccc3)=C2C(C)=O)c(Cl)cc1OCC(=O)O (stereo not given),inconclusive: 112%
4,COc1cc(Cl)c(C)cc1NC(=O)Cc1ccc(OC)c(OC)c1,inconclusive: 60.1%
5,O=C(COC(=O)c1ccc(Cl)c(S(=O)(=O)N2CCN(c3ccc(F)cc3)CC2)c1)Nc1cccc(Cl)c1,inactive: 102%
6,O=C(NCc1ccc2c(c1)OCO2)c1cc(-c2cc(Cl)ccc2O)n[nH]1,inconclusive: 170%
7,CC1(C)Cc2cccc(OCC(=O)Nc3cc(C(F)(F)F)ccc3N3CCOCC3)c2O1,active: 226% [activator]
8,CC(OC(=O)c1ccc(-c2ccc([N+](=O)[O-])cc2)o1)C(=O)NC(N)=O (stereo not given),inconclusive: 104%
9,CCOCCCNC(=O)/C(C#N)=C/c1ccc([N+](=O)[O-])o1,inconclusive: 99.3%
10,COc1cscc1C(=O)O,inconclusive: 118%
11,O=C(CN1C(=O)C2C3CC(C(Br)C3Br)C2C1=O)N1CCN(Cc2ccccc2)CC1 (stereo not given),inconclusive: 103%
12,O=C1CC(NNc2nc3ccccc3s2)C(=O)N1c1ccc(F)cc1 (stereo not given),inconclusive: 77.9%
13,CC1CC(C)(C)NC(=S)O1 (stereo not given),inconclusive: 111%
14,COc1ccc(-c2cn3ccccc3n2)cc1,inconclusive: 129%
15,Cc1ccc(N(CC(=O)NCc2ccco2)C(=O)CCC(=O)Nc2ccccn2)cc1C,inactive: 99%
16,O=C(C[n+]1cc(Br)cc(Br)c1)c1cccc([N+](=O)[O-])c1,inconclusive: 87.4%
17,CCCCN1C(=O)C(O)=C(C(C)=O)C1c1ccccc1[N+](=O)[O-] (stereo not given),inconclusive: 87.9%
18,C/C(=N\NC(=O)CN1CCN(Cc2ccccc2)CC1)c1cccs1,inconclusive: 57.3%
19,CCN(CC)c1ccc(C(=O)OCC(=O)NC(C)(C)C)cc1,inconclusive: 107%
20,COC(=O)C1C(O)C(C)C(O)C(C)(O)/C=C\C=C(/C)C(=O)Nc2c(C)c(OC(C)=O)c3c(c2O)C(=O)C(C)=C2OCOC(=C23)/C(C)=C/C(C)(O)C(O)C(C)C1O (stereo not given),inconclusive: 73.1%
21,Cc1cccc(C)c1OCCN1C(=O)NC(C)(c2ccccc2)C1=O (stereo not given),inactive: 105%
22,Cc1nnc(SCc2cc([N+](=O)[O-])cc3c2OCOC3)[nH]c1=O,inconclusive: 108%
23,COc1ccc(N(Cc2cc3ccccc3[nH]c2=O)S(=O)(=O)c2ccccc2)cc1,inconclusive: 59.3%

row,SMILES,binding response (% of control)
1,CN(C)c1nc(-c2cccs2)cc(C(F)(F)F)c1C#N,inconclusive: 688%
2,COc1cc(OC)c2c(-c3ccccc3)cc(=O)oc2c1C(CCN1CCCCC1)c1ccc(N(C)C)cc1 (stereo not given),inconclusive: 89.7%
3,O=C(O)c1cccc(NN=C2c3ccccc3-c3ccccc32)c1,inconclusive: 99.9%
4,Cc1nc(Nc2cccc(O)c2)c2c3c(sc2n1)CCC3,inconclusive: 144%
5,O=C(Nc1ccc(Br)cn1)c1coc(=O)c(Br)c1,inconclusive: 80.9%
6,Cc1cc(/C=N/Nc2nc(N)ncc2[N+](=O)[O-])c(C)n1-c1ccccc1F,inconclusive: 102%
7,Cc1cc(NC(=O)COC(=O)c2ccccc2[N+](=O)[O-])no1,inconclusive: 126%
8,O=C(/C=C/c1cccc(Br)c1)Nc1nn[nH]n1,inconclusive: 104%
9,Cc1cccc(C(=O)NNC(=O)C2CCCO2)c1 (stereo not given),active: 14.1%
10,O=C(Cn1ccc(C(F)(F)F)n1)N/N=C/c1ccc(N2CCOCC2)cc1,inconclusive: 95.8%
11,COc1ccc(OC)c(C(=O)Cn2c3[n+](c4ccc(C(F)(F)F)cc42)CCCCC3)c1,inactive: 112%
12,c1ccc(CN2CCOCCOCCOCC2)cc1,inconclusive: 94.6%
13,COc1ccc(C2=NO[C@@H]3[C@@H]4C[C@@H]([C@H]5C(=O)N(C)C(=O)[C@@H]45)[C@H]23)c(OC)c1,inconclusive: 142%
14,Cc1cccc(NC(=O)CC2C(=O)NC3CCCCC3N2C(=O)c2ccccc2Cl)c1 (stereo not given),inconclusive: 95%
15,CC(=C\C(=O)O)/C(=C\c1cccc2ccccc12)C(=O)O,inconclusive: 104%
16,Cc1cccc(N2CN(Cc3cccnc3)CNC2=S)c1,inactive: 97.6%
17,Cc1c(Cl)cccc1NC(=O)CC(C(=O)O)C1CCCO1 (stereo not given),inactive: 130%
18,COC(=O)CCN(C(=O)c1ccc([N+](=O)[O-])cc1)c1ccccn1,inconclusive: 118%
19,CCCCS(=O)(=O)C1CCS(=O)(=O)C1 (stereo not given),inactive: 95.9%
20,Cc1ccc(NC(=S)NCc2ccc(S(N)(=O)=O)cc2)cc1Cl,inconclusive: 105%
21,COc1cc2c(cc1OC)CN(C(=O)c1ccc(S(=O)(=O)N3CCCC3)cc1)CC2,inconclusive: 170%

# Of the compounds above, 4 have two or more sulfur atoms.
row,SMILES,binding response (% of control)
11,Cn1cccc1/C=C1\SC(=S)N(Nc2ccccc2)C1=O,inconclusive: 70.1%
12,Cc1ccc(CCNC(=O)CS(=O)Cc2nc(-c3cccs3)oc2C)cc1 (stereo not given),inconclusive: 94.2%
19,CCCCS(=O)(=O)C1CCS(=O)(=O)C1 (stereo not given),inactive: 95.9%
20,Cc1ccc(NC(=S)NCc2ccc(S(N)(=O)=O)cc2)cc1Cl,inconclusive: 105%

# — PubChem BioAssay AID1439 (NMMLSC, 2008)
